Values from PubChem BioAssay AID1259308 (NCATS, 2017)
Shown is one part, drawn at random, of about 59,000 reagents tested. About 1,510 of them (2.6%) were called active. 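Calls use total luciferase alone and ignore viability, so some active siRNAs may act by altering cell number.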 Entries without a mark were called inactive. The numbers tell different reagents against one gene apart. Not all columns of the deposit are shown. No sequences are given here.

Screen: 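Candidate targets for better recombinant protein yield in mammalian cells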 (primary screen)
Cell system: human HEK293 embryonic kidney cells stably expressing firefly luciferase (HEK-CMV-Luc2-Hygro)
Reagents: single siRNA against human genes, 0.8 pmol siRNA per well
Time to read-out: 72 h
Detection: 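Luciferase light (ONE-Glo) measured on one replicate plate set and viability (CellTiter-Glo) on the other, scaled to a negative control siRNA, with robust z-scores and luciferase per cell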
Scale: total luciferase, z-score: higher = more reporter protein produced
Active means: 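An siRNA counts as active if its total luciferase robust z-score exceeds 3; genes with two or more such siRNAs out of three were retested with fresh siRNAs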
Calls: active = raised luciferase; inactive = no rise

KRT18 #1 gave total luciferase, z-score 0.102. With knock-down of KRT18 #2 the results were total luciferase, z-score -0.161. After knock-down of KRT18 #3, the record shows total luciferase, z-score -0.751. After knock-down of SLC16A11 #1, the screen gave total luciferase, z-score 1.51. Against SLC16A11 #2, the entry reads total luciferase, z-score -1.12. For SLC16A11 #3, the entry reads total luciferase, z-score 1.28.

After knock-down of ZNF425 #1 the results were total luciferase, z-score -0.347. For ZNF425 #2, the entry reads total luciferase, z-score 1.51. For ZNF425 #3, the entry reads total luciferase, z-score 1.58. Against GRM6 #1 the deposit lists total luciferase, z-score 1.11. With knock-down of GRM6 #2 the results were total luciferase, z-score 1.66. After knock-down of GRM6 #3 the results were total luciferase, z-score 0.784.

Depletion of PSG3 #1 gave: total luciferase, z-score 0.388. With knock-down of PSG3 #2, the record shows total luciferase, z-score -0.264. Depletion of PSG3 #3 resulted in: total luciferase, z-score -1.3. Knock-down of RPL15P11 #1 resulted in: total luciferase, z-score -2.98. RPL15P11 #2 showed total luciferase, z-score -0.263. Knock-down of RPL15P11 #3 resulted in: total luciferase, z-score -2.24.

With knock-down of CCER1 #1 the results were total luciferase, z-score -0.341. CCER1 #2 showed total luciferase, z-score 0.362. Against CCER1 #3, the entry reads total luciferase, z-score 0.206.
